# ± gives the standard deviation of the averaged measurements. The list shows a part of the results, in another mix than the full data.
# Assays:
# Experiment in all cases: NP40-soluble protein abundance relative to vehicle (solubility fold change) (ratio); higher = more soluble protein in presence of ATP
# TXNL1 = biological target: T1, TXNL1 (UniProt O43396)
# T1 sequence (whole entry): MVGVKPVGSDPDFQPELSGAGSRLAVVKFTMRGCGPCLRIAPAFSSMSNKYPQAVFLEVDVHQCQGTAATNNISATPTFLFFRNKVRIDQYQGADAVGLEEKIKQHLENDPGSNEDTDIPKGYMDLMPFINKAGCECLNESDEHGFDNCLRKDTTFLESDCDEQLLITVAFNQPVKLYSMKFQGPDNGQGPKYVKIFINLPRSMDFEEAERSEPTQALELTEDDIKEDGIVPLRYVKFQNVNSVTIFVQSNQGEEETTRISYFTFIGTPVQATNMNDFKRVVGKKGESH
# How it was run: (§1)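 Data come from three independent experiments in which Dounce-homogenised Jurkat crude lysate was treated at eight concentrations from 0.1 to 10 mM. Treatment ran 10 min at room temperature and then 3 min at 37 °C, after which 0.8% NP40 and benzonase were added for 60 min at 4 °C before ultracentrifugation. The supernatant underwent TMT labelling and LC-MS/MS, and vsn-normalised intensities were expressed as fold change against the detergent-processed vehicle in each replicate.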
# [1] = biological target: T2, UniProt O00255 and related entries
# T2 sequence (whole entry): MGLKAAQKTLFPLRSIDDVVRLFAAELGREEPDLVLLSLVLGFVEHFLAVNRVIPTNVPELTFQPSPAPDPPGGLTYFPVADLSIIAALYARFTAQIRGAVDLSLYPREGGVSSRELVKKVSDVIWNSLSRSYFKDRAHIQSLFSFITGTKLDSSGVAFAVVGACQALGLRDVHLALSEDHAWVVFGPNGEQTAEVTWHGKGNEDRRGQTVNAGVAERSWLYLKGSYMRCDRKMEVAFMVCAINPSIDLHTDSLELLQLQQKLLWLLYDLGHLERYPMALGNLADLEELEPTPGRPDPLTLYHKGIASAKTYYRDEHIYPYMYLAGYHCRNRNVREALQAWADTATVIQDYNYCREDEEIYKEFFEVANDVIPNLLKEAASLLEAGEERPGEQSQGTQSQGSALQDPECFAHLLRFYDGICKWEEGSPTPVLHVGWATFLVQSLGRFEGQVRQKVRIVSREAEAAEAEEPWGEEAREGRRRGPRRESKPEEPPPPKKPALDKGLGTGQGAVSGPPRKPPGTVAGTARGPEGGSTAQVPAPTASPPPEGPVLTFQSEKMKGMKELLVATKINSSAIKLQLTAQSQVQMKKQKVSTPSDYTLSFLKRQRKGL
# How it was run: as §1
# [2] = biological target: T3, UniProt O00410 and related entries
# T3 sequence (whole entry): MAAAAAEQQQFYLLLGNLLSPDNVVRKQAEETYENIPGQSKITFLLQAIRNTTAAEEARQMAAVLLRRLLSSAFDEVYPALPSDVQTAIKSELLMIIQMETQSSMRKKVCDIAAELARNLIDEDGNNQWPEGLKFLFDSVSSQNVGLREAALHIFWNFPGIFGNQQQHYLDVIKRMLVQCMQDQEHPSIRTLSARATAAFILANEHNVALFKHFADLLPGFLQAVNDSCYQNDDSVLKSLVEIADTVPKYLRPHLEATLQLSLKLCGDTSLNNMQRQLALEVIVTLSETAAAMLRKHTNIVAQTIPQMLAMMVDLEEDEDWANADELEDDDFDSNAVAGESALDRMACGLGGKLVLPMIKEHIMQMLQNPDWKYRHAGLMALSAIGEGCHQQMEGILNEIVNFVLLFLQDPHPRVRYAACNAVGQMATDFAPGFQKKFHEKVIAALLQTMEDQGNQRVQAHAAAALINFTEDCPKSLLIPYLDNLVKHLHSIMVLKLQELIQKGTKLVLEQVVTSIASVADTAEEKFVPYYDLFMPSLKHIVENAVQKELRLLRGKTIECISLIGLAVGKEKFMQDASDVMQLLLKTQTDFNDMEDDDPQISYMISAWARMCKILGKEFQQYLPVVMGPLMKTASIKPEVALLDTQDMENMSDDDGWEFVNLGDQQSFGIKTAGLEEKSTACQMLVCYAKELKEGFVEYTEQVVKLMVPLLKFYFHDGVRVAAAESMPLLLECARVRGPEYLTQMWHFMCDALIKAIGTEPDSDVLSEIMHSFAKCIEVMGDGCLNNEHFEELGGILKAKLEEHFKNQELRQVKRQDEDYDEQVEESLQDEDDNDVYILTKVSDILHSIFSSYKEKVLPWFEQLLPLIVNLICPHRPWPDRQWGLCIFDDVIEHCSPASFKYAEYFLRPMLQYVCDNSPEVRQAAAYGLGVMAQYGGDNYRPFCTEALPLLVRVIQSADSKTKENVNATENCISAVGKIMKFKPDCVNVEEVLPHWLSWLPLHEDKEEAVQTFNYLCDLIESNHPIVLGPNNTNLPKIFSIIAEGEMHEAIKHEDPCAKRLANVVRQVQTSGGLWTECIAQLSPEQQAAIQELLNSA
# How it was run: as §1
# [3] = biological target: T4, UniProt O14920 and related entries
# T4 sequence (whole entry): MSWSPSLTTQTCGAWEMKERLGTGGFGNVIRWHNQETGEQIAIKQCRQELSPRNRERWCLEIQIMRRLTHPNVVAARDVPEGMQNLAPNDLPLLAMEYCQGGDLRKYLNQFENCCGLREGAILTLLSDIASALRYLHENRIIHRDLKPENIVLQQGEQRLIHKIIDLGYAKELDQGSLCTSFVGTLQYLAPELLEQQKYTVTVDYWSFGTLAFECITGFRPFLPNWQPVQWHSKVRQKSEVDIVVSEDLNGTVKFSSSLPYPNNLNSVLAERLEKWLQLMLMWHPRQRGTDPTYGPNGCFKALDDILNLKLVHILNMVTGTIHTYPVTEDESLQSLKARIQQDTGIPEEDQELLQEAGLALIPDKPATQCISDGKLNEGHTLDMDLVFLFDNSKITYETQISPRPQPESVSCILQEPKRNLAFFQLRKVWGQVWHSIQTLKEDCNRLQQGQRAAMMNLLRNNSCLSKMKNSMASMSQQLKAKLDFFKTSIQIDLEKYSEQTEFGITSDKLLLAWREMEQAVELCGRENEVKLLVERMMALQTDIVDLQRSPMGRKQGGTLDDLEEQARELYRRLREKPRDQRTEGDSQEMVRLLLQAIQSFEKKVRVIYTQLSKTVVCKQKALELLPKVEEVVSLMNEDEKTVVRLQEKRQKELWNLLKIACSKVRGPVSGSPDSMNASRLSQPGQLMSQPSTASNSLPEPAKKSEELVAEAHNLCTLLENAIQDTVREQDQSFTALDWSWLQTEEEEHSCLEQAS
# How it was run: as §1
# UniProt O15091 = biological target: T5, UniProt O15091
# T5 sequence (whole entry): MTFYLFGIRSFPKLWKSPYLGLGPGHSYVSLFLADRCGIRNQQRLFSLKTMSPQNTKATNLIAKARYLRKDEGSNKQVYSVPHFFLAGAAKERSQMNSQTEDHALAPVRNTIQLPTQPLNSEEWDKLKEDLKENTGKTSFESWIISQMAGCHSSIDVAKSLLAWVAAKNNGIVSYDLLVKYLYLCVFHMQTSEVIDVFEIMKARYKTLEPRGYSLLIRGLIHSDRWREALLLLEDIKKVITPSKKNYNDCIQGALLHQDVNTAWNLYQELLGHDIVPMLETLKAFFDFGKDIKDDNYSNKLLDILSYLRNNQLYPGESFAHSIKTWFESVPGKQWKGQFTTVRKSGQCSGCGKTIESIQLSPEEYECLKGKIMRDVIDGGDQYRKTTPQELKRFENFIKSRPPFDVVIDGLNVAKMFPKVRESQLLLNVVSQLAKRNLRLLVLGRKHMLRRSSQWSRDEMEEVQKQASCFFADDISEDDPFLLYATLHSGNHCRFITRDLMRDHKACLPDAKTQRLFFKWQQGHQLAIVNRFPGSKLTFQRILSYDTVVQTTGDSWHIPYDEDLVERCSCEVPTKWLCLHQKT
# How it was run: as §1
# [4] = biological target: T6, UniProt O15123 and related entries
# T6 sequence (whole entry): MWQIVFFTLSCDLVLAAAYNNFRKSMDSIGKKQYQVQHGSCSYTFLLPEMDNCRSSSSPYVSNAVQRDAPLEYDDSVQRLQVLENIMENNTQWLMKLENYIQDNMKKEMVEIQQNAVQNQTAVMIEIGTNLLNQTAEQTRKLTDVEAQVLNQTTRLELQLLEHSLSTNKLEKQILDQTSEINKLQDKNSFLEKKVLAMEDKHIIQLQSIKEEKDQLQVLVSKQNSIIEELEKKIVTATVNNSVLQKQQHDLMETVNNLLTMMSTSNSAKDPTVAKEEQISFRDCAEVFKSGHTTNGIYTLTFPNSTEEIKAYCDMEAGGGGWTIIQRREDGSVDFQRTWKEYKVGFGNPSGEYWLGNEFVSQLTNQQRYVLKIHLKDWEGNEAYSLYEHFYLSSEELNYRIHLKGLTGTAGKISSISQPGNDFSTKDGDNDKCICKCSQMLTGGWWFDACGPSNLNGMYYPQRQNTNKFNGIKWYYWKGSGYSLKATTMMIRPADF
# How it was run: as §1
smiles,measurement,setting,value
Nc1ncnc2c1ncn2[C@@H]1O[C@H](COP(=O)(O)OP(=O)(O)OP(=O)(O)O)[C@@H](O)[C@H]1O [adenosine triphosphate],NP40-soluble protein abundance,TXNL1; concentration: 1mM,1.02 ± 0.013
same,NP40-soluble protein abundance,TXNL1; concentration: 2mM,1.01 ± 0.027
same,NP40-soluble protein abundance,TXNL1; concentration: 4mM,0.996 ± 0.045
same,NP40-soluble protein abundance,TXNL1; concentration: 6mM,0.946 ± 0.025
same,NP40-soluble protein abundance,TXNL1; concentration: 8mM,0.989 ± 0.035
same,NP40-soluble protein abundance,TXNL1; concentration: 10mM,0.978 ± 0.035
same,NP40-soluble protein abundance,[1]; concentration: 1mM,1.09 ± 0.077
same,NP40-soluble protein abundance,[1]; concentration: 2mM,1.1 ± 0.073
same,NP40-soluble protein abundance,[1]; concentration: 4mM,1.14 ± 0.048
same,NP40-soluble protein abundance,[1]; concentration: 6mM,1.11 ± 0.13
same,NP40-soluble protein abundance,[1]; concentration: 8mM,1.2 ± 0.062
same,NP40-soluble protein abundance,[1]; concentration: 10mM,1.19 ± 0.037
same,NP40-soluble protein abundance,[2]; concentration: 1mM,0.976 ± 0.022
same,NP40-soluble protein abundance,[2]; concentration: 2mM,0.968 ± 0.025
same,NP40-soluble protein abundance,[2]; concentration: 4mM,0.9321 ± 0.0071
same,NP40-soluble protein abundance,[2]; concentration: 6mM,0.928 ± 0.04
same,NP40-soluble protein abundance,[2]; concentration: 8mM,0.935 ± 0.0095
same,NP40-soluble protein abundance,[2]; concentration: 10mM,0.93 ± 0.017
same,NP40-soluble protein abundance,[3]; concentration: 1mM,1.02 ± 0.017
same,NP40-soluble protein abundance,[3]; concentration: 2mM,1.01 ± 0.042
same,NP40-soluble protein abundance,[3]; concentration: 4mM,0.99 ± 0.013
same,NP40-soluble protein abundance,[3]; concentration: 6mM,0.967 ± 0.038
same,NP40-soluble protein abundance,[3]; concentration: 8mM,0.961 ± 0.03
same,NP40-soluble protein abundance,[3]; concentration: 10mM,0.974 ± 0.052
same,NP40-soluble protein abundance,UniProt O15091; concentration: 1mM,1.02 ± 0.012
same,NP40-soluble protein abundance,UniProt O15091; concentration: 2mM,1.02 ± 0.039
same,NP40-soluble protein abundance,UniProt O15091; concentration: 4mM,1.04 ± 0.021
same,NP40-soluble protein abundance,UniProt O15091; concentration: 6mM,0.998 ± 0.045
same,NP40-soluble protein abundance,UniProt O15091; concentration: 8mM,1.05 ± 0.028
same,NP40-soluble protein abundance,UniProt O15091; concentration: 10mM,1.05 ± 0.084
same,NP40-soluble protein abundance,[4]; concentration: 1mM,0.901 ± 0.023
same,NP40-soluble protein abundance,[4]; concentration: 2mM,0.884 ± 0.039
same,NP40-soluble protein abundance,[4]; concentration: 4mM,0.939 ± 0.04

# Given tab-delimited: part of the list above.
smiles	measurement	setting	value
Nc1ncnc2c1ncn2[C@@H]1O[C@H](COP(=O)(O)OP(=O)(O)OP(=O)(O)O)[C@@H](O)[C@H]1O [adenosine triphosphate]	NP40-soluble protein abundance	UniProt O15091; concentration: 6mM	0.998 ± 0.045
same	NP40-soluble protein abundance	UniProt O15091; concentration: 8mM	1.05 ± 0.028
